The other results are listed elsewhere or left out. Further columns of the screen follow, without active or inactive calls. Most of these compounds were active or inconclusive in the main read-out, so they are no random draw. The note in brackets gives the kind of curve behind each potency; many fits are weak.
Experiment: qHTS Assay to Find Inhibitors of Chronic Active B-Cell Receptor Signaling
Details: ABC-DLBCL IkBa-CBG/CBR reporter, luminescence ratio (green luciferase fused to IkBa over red control in TMD8 lymphoma cells), 4 h
How it was run: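 Concentration-response series (up to 46 uM) were applied to TMD8 dual-reporter cells for 4 h at 37C with doxycycline. Green/red ratio, after filter-overlap correction, defined %Activity; red signal alone was normalised to basal cells and zero luminescence.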

[1] = measured here: CBR red luminescence, cell number
[2] = measured here: IkBa-CBG green luminescence

| Structure (SMILES) | AC50 [1] | AC50 [2] |
| --- | --- | --- |
| O=C(CN1C(=O)C(=O)N(Cc2ccccc2)C1=O)Nc1cc(Cl)cc(Cl)c1 | 17.8 µM [rising, partial curve] | 35.5 µM [falling, single point] |
| CCOc1ccc(NC(=O)CSc2nc(=O)n(Cc3ccccn3)c3c2CCC3)cc1 | 20.6 µM [falling, partial curve] | – |
| Cc1ccc(C)c(NC(=O)c2ncn[nH]2)c1 | 4.47 µM [falling, single point] | – |
| Cc1ccc(C)c(SCC(=O)Nc2ccc(S(=O)(=O)Nc3ncccn3)cc2)c1 | 8.91 µM [rising, partial curve, poor fit] | – |
| Cn1c(CNc2nc3ccccc3n2CCN2CCCCC2)nc2ccccc21 | 25.1 µM [falling, single point] | 35.5 µM [rising, partial curve, poor fit] |
| CCCn1c(NC(=O)CN2C(=O)NC3(CCCCC3)C2=O)nc2ccccc21 | 23.1 µM [falling, partial curve, poor fit] | – |
| COc1ccc(-c2cn3cccc(C)c3n2)cc1Br | 9.2 µM [rising, partial curve, poor fit] | – |
| O=C(Nc1cc2c(cc1Cl)OCCCO2)c1ccc(F)cc1 | 6.51 µM [rising, single point] | – |
| CCC/C(O)=C1\C(=O)CCCC1=NCCCCCC(=O)O | 3.66 µM [falling, single point] | – |
| CCCc1ccc(OCc2ccc(C(=O)N3CCCC3)o2)cc1 | 35.5 µM [falling, single point] | – |
| Cc1ccc(CCSCC(=O)O)cn1 | 16.4 µM [falling, single point] | – |
| CCOc1ccccc1N1CCN(C(=O)CCNS(=O)(=O)c2ccccc2F)CC1 | 0.731 µM [falling, partial curve, poor fit] | – |
| COc1cc2cc(CN(Cc3cccnc3)C(=O)Nc3ccccc3F)c(=O)[nH]c2cc1OC | 3.98 µM [falling, full curve, poor fit] | 2.82 µM [rising, full curve] |
| C/C(CCC(C)C)=N\Nc1ccc(S(N)(=O)=O)cc1[N+](=O)[O-] | 12.6 µM [rising, single point] | – |
| Cc1ccccc1N1CCN(C2CCCN(C(=O)c3cn4c(C)cccc4n3)C2)CC1 (stereo not drawn) | 35.5 µM [falling, single point] | – |
| CCCCCOC(=O)c1c(N)n(CCOC)c2nc3ccccc3nc12 | 7.94 µM [falling, partial curve] | – |
| O=C(OCC(=O)N1CCc2ccccc21)c1cc(S(=O)(=O)N2CCOCC2)ccc1F | 29.1 µM [falling, single point] | – |
| C/C(=N\NC(=O)c1ccccc1O)C1CC1 | 2 µM [falling, full curve] | – |
| CCCn1c(NC(=S)Nc2ccccc2)nc2ccccc21 | 0.92 µM [rising, full curve, poor fit] | – |
| COc1ccc(NC(=O)c2ccc(N(C)S(C)(=O)=O)cc2)cc1OC | 4.61 µM [falling, single point] | – |

| Structure (SMILES) | AC50 [1] | AC50 [2] |
| --- | --- | --- |
| O=C(NCCc1ccco1)c1nn(Cc2ccccc2)c(=O)c2ccccc12 | 11.2 µM [falling, partial curve, poor fit] | – |
| O=C(COC(=O)c1ccc(O)cc1)Nc1ccccc1-c1ccccc1 | 29.1 µM [falling, single point] | – |
| CC(Nc1nc(N2CCCCC2)nc2ccccc12)c1ccccc1 (stereo not drawn) | 29.1 µM [falling, single point] | – |
| Cc1cc(C)c[n+](-c2nc3ccccc3nc2C(=C=[N-])C#N)c1 | 29.1 µM [rising, single point] | – |
| Cc1ccc(S(=O)(=O)N(C(=O)c2ccco2)c2cc3sc(=O)oc3c3ccccc23)cc1 | 18.4 µM [falling, single point] | – |
| CCOCCn1c(C)c(C(=O)OCC)c2cc(O)c3ccccc3c21 | 1.46 µM [rising, partial curve] | – |
| CCCN(Cc1ccc(C)cc1)C(=O)c1ccc(CNS(=O)(=O)c2ccc(C(C)=O)cc2)cc1 | 14.6 µM [falling, single point] | – |
| O=[N+]([O-])c1ccc(C2Oc3ccccc3C3CC(c4ccccc4)=NN32)s1 (stereo not drawn) | 14.6 µM [falling, single point] | – |
| Cc1c(NC(=O)c2ccc(COc3ccc4ccccc4c3)o2)c(=O)n(-c2ccccc2)n1C | 22.4 µM [falling, single point] | – |
| COc1cc(NC(=O)CN2C(=O)NC(c3ccccc3)(c3ccccc3)C2=O)cc(OC)c1 | 22.4 µM [falling, single point] | – |
| COc1ccccc1C(=O)NCC(=O)N/N=C/c1cc(Br)ccc1OCc1ccccc1 | 0.259 µM [rising, full curve, poor fit] | – |
| O=C(N/N=C/c1cn(-c2ccccc2)nc1-c1cccs1)c1ccccc1F | 13 µM [falling, partial curve, poor fit] | – |
| CCCC(C)c1nnc(NC(=O)C(=O)OCC)s1 (stereo not drawn) | 0.1 µM [rising, full curve, poor fit] | – |
| Oc1ccc(C[C@H]2CNCCN2CCc2cc(C(F)(F)F)cc(C(F)(F)F)c2)cc1 | 23.1 µM [falling, partial curve, poor fit] | – |
| NC(=O)c1ccsc1NC(=O)CSc1ncnc2sccc12 | 1.64 µM [falling, full curve, poor fit] | – |
| COCCC(=O)N1CCC(Oc2ccc(C(=O)NCCC3=CCCCC3)cc2)CC1 | 3.98 µM [rising, single point] | – |
| CCOC(=O)C1C(=O)C=C(c2ccc(NS(C)(=O)=O)cc2)CC1c1ccco1 (stereo not drawn) | 31.6 µM [falling, single point] | – |
| O=C(CCC1CCCN(C(=O)CCCc2ccccc2)C1)N1CCN(c2ccccn2)CC1 (stereo not drawn) | 22.4 µM [rising, single point] | – |
| c1ccc2c(c1)nc(Nc1ccc3c(c1)OCO3)c1nnnn12 | 8.2 µM [falling, partial curve] | – |
| O=[N+]([O-])CC(=Nc1ccc(Cl)cc1)N/N=C\c1oc(O)c2ccccc12 | 1.84 µM [falling, full curve, poor fit] | – |

Sorted by SMILES length (low to high): part of the list above

| Structure (SMILES) | AC50 [1] | AC50 [2] |
| --- | --- | --- |
| CCOc1ccccc1N1CCN(C(=O)CCNS(=O)(=O)c2ccccc2F)CC1 | 0.731 µM [falling, partial curve, poor fit] | – |
| C/C(CCC(C)C)=N\Nc1ccc(S(N)(=O)=O)cc1[N+](=O)[O-] | 12.6 µM [rising, single point] | – |
| O=C(CCC1CCCN(C(=O)CCCc2ccccc2)C1)N1CCN(c2ccccn2)CC1 (stereo not drawn) | 22.4 µM [rising, single point] | – |
